Results on 2 molecules are retold here after PMC8262361.

Chains of the proteins cited; added tags and fusions are not shown. Lines headed by an entry give the natural chain unless they say otherwise; changes in a name come on top.
UniProt P16070: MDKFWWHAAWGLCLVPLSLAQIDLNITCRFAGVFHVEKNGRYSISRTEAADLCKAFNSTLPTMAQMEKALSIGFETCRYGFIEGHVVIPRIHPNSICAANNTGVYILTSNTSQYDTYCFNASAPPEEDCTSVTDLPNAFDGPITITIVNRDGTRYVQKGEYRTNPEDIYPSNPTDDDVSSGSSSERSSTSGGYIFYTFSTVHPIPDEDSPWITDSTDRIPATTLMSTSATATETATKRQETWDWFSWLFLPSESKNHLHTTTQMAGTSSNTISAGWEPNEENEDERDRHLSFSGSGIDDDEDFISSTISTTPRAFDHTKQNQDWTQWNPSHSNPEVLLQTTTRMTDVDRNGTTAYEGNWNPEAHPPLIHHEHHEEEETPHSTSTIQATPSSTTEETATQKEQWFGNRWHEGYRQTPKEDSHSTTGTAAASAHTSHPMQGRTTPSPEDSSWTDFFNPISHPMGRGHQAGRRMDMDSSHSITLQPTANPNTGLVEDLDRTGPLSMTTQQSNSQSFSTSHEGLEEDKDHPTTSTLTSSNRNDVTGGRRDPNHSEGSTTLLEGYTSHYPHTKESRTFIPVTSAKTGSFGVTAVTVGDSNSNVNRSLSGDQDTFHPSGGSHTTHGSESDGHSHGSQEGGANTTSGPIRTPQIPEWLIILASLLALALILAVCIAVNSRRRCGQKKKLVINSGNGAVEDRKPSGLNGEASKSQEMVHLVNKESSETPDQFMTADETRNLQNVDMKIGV
UniProt P51532: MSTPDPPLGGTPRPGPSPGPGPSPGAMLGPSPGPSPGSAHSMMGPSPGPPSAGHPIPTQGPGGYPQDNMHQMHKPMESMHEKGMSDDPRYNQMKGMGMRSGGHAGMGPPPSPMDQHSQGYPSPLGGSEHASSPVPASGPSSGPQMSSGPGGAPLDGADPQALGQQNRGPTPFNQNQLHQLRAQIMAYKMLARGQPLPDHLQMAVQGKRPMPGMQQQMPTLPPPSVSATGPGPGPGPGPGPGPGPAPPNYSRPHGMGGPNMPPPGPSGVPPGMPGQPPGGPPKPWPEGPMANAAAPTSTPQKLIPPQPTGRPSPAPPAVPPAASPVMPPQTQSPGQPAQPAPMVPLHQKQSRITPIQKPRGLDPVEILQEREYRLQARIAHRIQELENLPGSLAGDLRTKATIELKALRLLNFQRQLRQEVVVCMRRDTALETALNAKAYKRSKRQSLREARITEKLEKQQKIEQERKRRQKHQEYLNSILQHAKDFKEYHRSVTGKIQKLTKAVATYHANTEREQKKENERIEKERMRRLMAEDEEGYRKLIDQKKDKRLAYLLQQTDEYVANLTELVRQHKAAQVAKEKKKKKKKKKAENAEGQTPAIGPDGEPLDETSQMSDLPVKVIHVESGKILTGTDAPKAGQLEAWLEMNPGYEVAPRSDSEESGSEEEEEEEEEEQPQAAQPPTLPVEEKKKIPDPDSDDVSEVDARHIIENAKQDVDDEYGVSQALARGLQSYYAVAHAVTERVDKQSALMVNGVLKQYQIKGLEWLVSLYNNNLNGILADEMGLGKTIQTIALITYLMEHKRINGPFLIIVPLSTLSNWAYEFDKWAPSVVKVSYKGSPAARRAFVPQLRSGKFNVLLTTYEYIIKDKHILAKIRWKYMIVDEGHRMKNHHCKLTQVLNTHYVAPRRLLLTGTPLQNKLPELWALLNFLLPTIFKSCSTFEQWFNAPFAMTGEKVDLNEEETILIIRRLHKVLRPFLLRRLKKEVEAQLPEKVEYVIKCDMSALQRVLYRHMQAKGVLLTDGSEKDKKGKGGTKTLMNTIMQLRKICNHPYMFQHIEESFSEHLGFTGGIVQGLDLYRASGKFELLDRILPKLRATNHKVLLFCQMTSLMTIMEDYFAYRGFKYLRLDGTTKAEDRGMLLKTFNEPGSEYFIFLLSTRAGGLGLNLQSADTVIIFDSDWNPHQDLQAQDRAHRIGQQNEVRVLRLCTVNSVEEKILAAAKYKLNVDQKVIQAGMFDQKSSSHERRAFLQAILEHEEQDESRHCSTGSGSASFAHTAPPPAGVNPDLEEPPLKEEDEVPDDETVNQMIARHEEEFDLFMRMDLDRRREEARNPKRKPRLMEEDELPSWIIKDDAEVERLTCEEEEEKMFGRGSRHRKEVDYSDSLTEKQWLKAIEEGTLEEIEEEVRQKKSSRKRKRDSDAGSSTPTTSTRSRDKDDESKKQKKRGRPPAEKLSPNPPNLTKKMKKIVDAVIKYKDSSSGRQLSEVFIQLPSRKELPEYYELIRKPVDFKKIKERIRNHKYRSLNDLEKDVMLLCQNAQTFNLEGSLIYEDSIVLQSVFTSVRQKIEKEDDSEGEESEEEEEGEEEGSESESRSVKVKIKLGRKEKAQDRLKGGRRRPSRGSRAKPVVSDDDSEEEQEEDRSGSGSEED

Like-named read-outs stand apart in the source and are kept apart here. Results are given in words; binding and its absence hold for the method and conditions named. In cells and extracts the contact can be indirect. Here binding means that the protein was enriched with, or labelled near, the bait; the list need not be complete.

The target in assay [1] is CD44 (human (endogenous in IPF MPCs)) (UniProt P16070). The assay is described as follows: affinity purification with mass spectrometry; CD44 immunoprecipitated with CD44 antibody (2C5, R&D Systems) from nuclear lysates (NE-PER) of CD44hi IPF MPCs treated with IL-8; isotype antibody as control; SDS-PAGE, silver stain, in-gel trypsin digestion, Orbitrap Velos.
The target is the same in assay [2]. The assay is described as above. The source holds these as a separate data set.

In the case of “Brahma-related gene 1 (Brg1) (from UniProt P51532 1-1647)”, the binding entry in assay [1] is “binds”.

B1: zinc finger E-box binding homeobox 1 (Zeb1) (protein, UniProt P37275 1-1124)
chain: MADGPRCKRRKQANPRRNNVTNYNTVVETNSDSDDEDKLHIVEEESVTDAADCEGVPEDDLPTDQTVLPGRSSEREGNAKNCWEDDRKEGQEILGPEAQADEAGCTVKDDECESDAENEQNHDPNVEEFLQQQDTAVIFPEAPEEDQRQGTPEASGHDENGTPDAFSQLLTCPYCDRGYKRFTSLKEHIKYRHEKNEDNFSCSLCSYTFAYRTQLERHMTSHKSGRDQRHVTQSGCNRKFKCTECGKAFKYKHHLKEHLRIHSGEKPYECPNCKKRFSHSGSYSSHISSKKCISLIPVNGRPRTGLKTSQCSSPSLSASPGSPTRPQIRQKIENKPLQEQLSVNQIKTEPVDYEFKPIVVASGINCSTPLQNGVFTGGGPLQATSSPQGMVQAVVLPTVGLVSPISINLSDIQNVLKVAVDGNVIRQVLENNQANLASKEQETINASPIQQGGHSVISAISLPLVDQDGTTKIIINYSLEQPSQLQVVPQNLKKENPVATNSCKSEKLPEDLTVKSEKDKSFEGGVNDSTCLLCDDCPGDINALPELKHYDLKQPTQPPPLPAAEAEKPESSVSSATGDGNLSPSQPPLKNLLSLLKAYYALNAQPSAEELSKIADSVNLPLDVVKKWFEKMQAGQISVQSSEPSSPEPGKVNIPAKNNDQPQSANANEPQDSTVNLQSPLKMTNSPVLPVGSTTNGSRSSTPSPSPLNLSSSRNTQGYLYTAEGAQEEPQVEPLDLSLPKQQGELLERSTITSVYQNSVYSVQEEPLNLSCAKKEPQKDSCVTDSEPVVNVIPPSANPINIAIPTVTAQLPTIVAIADQNSVPCLRALAANKQTILIPQVAYTYSTTVSPAVQEPPLKVIQPNGNQDERQDTSSEGVSNVEDQNDSDSTPPKKKMRKTENGMYACDLCDKIFQKSSSLLRHKYEHTGKRPHECGICKKAFKHKHHLIEHMRLHSGEKPYQCDKCGKRFSHSGSYSQHMNHRYSYCKREAEERDSTEQEEAGPEILSNEHVGARASPSQGDSDERESLTREEDEDSEKEEEEEDKEMEELQEEKECEKPQGDEEEEEEEEEVEEEEVEEAENEGEEAKTEGLMKDDRAESQASSLGQKVGESSEQVSEEKTNEA
As to B1, in assay [2], the binding result is on record as “binds”.
